Measurements taken from article PMC11066036.

The chains behind the UniProt entries cited, without tags or fusion partners. Where a name states a change or a piece, a line headed by the entry shows the natural chain unless it says otherwise. A line that says so, or that is headed by a name, gives the form on record, which may keep a tag or linker.
HPK1 kinase domain T165E/S171E (Q92918, form named): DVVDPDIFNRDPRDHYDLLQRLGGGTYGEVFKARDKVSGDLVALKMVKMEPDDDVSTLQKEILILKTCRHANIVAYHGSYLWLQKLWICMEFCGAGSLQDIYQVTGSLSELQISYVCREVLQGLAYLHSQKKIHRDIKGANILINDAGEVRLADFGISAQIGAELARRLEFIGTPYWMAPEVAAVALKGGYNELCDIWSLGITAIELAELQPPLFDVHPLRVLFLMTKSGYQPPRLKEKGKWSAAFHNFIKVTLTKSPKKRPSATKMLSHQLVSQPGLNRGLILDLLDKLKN

Biological target: HPK1 kinase domain T165E/S171E (KD TSEE WT) (UniProt Q92918)
Assay: SPR; Biacore T200; KD TSEE WT amine-coupled (about 300 RU) on a C1 chip; WT-CHD and CHD mutants injected at 2 μM for 90 s; 20 mM HEPES, 300 mM NaCl, 0.1% polysorbate 20, 0.5 mM TCEP, pH 7.4; 25 °C; both purified

| binding | Substance |
| --- | --- |
| no binding (tested: 2 μM) | HPK1 CHD K558E ΔK574-K594 (from UniProt Q92918-2) (domain or fragment) |
| no binding (tested: 2 μM) | HPK1 CHD ΔK574-K594 (from UniProt Q92918-2) (domain or fragment) |

These are yes or no findings as the source states them, for the method shown.
